Record: PubChem BioAssay AID1159578 (Peter MacCallum Cancer Centre, 2015)
Purpose: 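siRNA pools altering how lymphatic endothelial cells close a scratch wound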 (primary screen). Cells: human lymphatic endothelial cells. Knock-down reagent: siRNA pool against human genes, 40 nM. Time to read-out: 48 h after transfection. Measurement: 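High-content imaging of dye-stained cells in a scratch assay measures filled wound area and nuclei per well; duplicate means given as ratio to mock and robust z-score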. Reading the numbers: migration robust z-score: higher = faster migration into the scratch; migration relative to mock: higher = more scratch area covered than mock; nuclei per well: higher = more cells in the well. Call rule: 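Pools averaging fewer than 3300 nuclei are never called; remaining pools count as changed when migration robust z lies outside -2 to 2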. Calls: active = migration changed; inactive = no migration change, or too few cells.
Here is a random part of about 18,000 deposited reagents. About 1,030 of all reagents (5.7%) count as active. 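Inactive calls also include pools with fewer than 3300 nuclei, whose migration was not assessed.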 Raw values are not corrected between plates. Unmarked entries are inactive.

gene knocked down,migration robust z-score,migration class with cell-count check,migration relative to mock,"nuclei per well, duplicate mean"
USP3 (ubiquitin specific peptidase 3),-0.83,migration z between -2 and 2; enough cells,0.64,5144
GPR88 (G protein-coupled receptor 88),-0.36,migration z between -2 and 2; enough cells,0.74,5174
ID4 (inhibitor of DNA binding 4),-0.34,migration z between -2 and 2; enough cells,0.74,6545
TRAIP (TRAF interacting protein),-1.86,migration z between -2 and 2; enough cells,0.44,5308
KLHDC4 (kelch domain containing 4),-2.67 (active),migration z below -2; enough cells,0.18,6947
MPV17L (MPV17 mitochondrial inner membrane protein like),-0.01,migration z between -2 and 2; enough cells,0.88,4802
ZNF528 (zinc finger protein 528),0.12,migration z between -2 and 2; enough cells,0.92,5728
WDR54 (WD repeat domain 54),0.12,migration z between -2 and 2; enough cells,0.92,6600
C9orf163 (chromosome 9 putative open reading frame 163),-0.39,migration z between -2 and 2; enough cells,0.78,5850
OR8D4 (olfactory receptor family 8 subfamily D member 4),-0.57,migration z between -2 and 2; enough cells,0.74,5700
TEKT3 (tektin 3),-0.26,migration z between -2 and 2; enough cells,0.82,5782
PLXDC1 (plexin domain containing 1),-0.26,migration z between -2 and 2; enough cells,0.82,5480
IRGQ (immunity related GTPase Q),0.52,migration z between -2 and 2; enough cells,1.02,7017
SSTR4 (somatostatin receptor 4),-0.94,migration z between -2 and 2; enough cells,0.62,7180
PDE6B (phosphodiesterase 6B),-0.02,migration z between -2 and 2; enough cells,0.88,6954
SLC48A1,-0.71,migration z between -2 and 2; enough cells,0.7,5542
DNAJC2 (DnaJ heat shock protein family (Hsp40) member C2),-0.65,migration z between -2 and 2; enough cells,0.72,5520
PAGE1 (PAGE family member 1),0.26,migration z between -2 and 2; enough cells,0.96,6462
SPHAR (retired record),1,migration z between -2 and 2; enough cells,1.14,5140
ACTR5 (actin related protein 5),1.49,migration z between -2 and 2; enough cells,1.27,5356
SLC39A12,-1.19,migration z between -2 and 2; enough cells,0.57,3687
LCE1B (late cornified envelope 1B),-1.7,migration z between -2 and 2; enough cells,0.44,5924
MRPL33 (mitochondrial ribosomal protein L33),0.86,migration z between -2 and 2; enough cells,1.11,6345
SLC24A1,0.76,migration z between -2 and 2; enough cells,0.95,5918
SOBP (sine oculis binding protein homolog),-1.62,migration z between -2 and 2; enough cells,0.46,5148
SLC25A23,-0.57,migration z between -2 and 2; enough cells,0.7,5846

Sorted by “migration robust z-score” (lowest first): 3 of the entries above.
gene knocked down,migration robust z-score,migration class with cell-count check,migration relative to mock,"nuclei per well, duplicate mean"
SSTR4 (somatostatin receptor 4),-0.94,migration z between -2 and 2; enough cells,0.62,7180
SLC48A1,-0.71,migration z between -2 and 2; enough cells,0.7,5542
PDE6B (phosphodiesterase 6B),-0.02,migration z between -2 and 2; enough cells,0.88,6954

More entries follow:
gene knocked down,migration robust z-score,migration class with cell-count check,migration relative to mock,"nuclei per well, duplicate mean"
UBXN8 (UBX domain protein 8),-0.32,migration z between -2 and 2; enough cells,0.8,5852
RBAKDN (RBAK downstream neighbor),1.61,migration z between -2 and 2; enough cells,1.3,6118
MPDZ (multiple PDZ domain crumbs cell polarity complex component),1.8,migration z between -2 and 2; enough cells,1.35,6879
"VEZT (vezatin, adherens junctions transmembrane protein)",0.28,migration z between -2 and 2; enough cells,0.96,5508
OR6K3 (olfactory receptor family 6 subfamily K member 3),-0.08,migration z between -2 and 2; enough cells,0.86,5898
GABRR1 (gamma-aminobutyric acid type A receptor subunit rho1),-0.49,migration z between -2 and 2; enough cells,0.71,4569
ACRBP (acrosin binding protein),-5.51,under 3300 nuclei; migration not judged,-0.54,700
CENPF (centromere protein F),-1.1,migration z between -2 and 2; enough cells,0.6,5720
TRIM75 (tripartite motif containing 75),1.4,migration z between -2 and 2; enough cells,1.08,6524
SNAP47 (synaptosome associated protein 47),-1.18,migration z between -2 and 2; enough cells,0.58,5834
KLK9 (kallikrein related peptidase 9),0.67,migration z between -2 and 2; enough cells,0.93,5106
SPMIP3 (sperm microtubule inner protein 3),-0.68,migration z between -2 and 2; enough cells,0.7,4476
ACBD4 (acyl-CoA binding domain containing 4),-1.15,migration z between -2 and 2; enough cells,0.58,3457
RPL31 (ribosomal protein L31),-1.64,migration z between -2 and 2; enough cells,0.46,5615
ZNF704 (zinc finger protein 704),1.82,migration z between -2 and 2; enough cells,1.36,6334
CHRNE (cholinergic receptor nicotinic epsilon subunit),-0.88,migration z between -2 and 2; enough cells,0.64,5349
FBXW8 (F-box and WD repeat domain containing 8),-2.08 (active),migration z below -2; enough cells,0.4,5822
SMAP2 (small ArfGAP2),2.51 (active),migration z above 2; enough cells,1.54,5801
GABRG1 (gamma-aminobutyric acid type A receptor subunit gamma1),-0.31,migration z between -2 and 2; enough cells,0.74,6478
HSD17B13 (hydroxysteroid 17-beta dehydrogenase 13),0.33,migration z between -2 and 2; enough cells,0.97,7427
NOLC1 (nucleolar and coiled-body phosphoprotein 1),-2.24,under 3300 nuclei; migration not judged,0.3,2746
C10orf67 (chromosome 10 open reading frame 67),1,migration z between -2 and 2; enough cells,1.15,5800
C1orf52 (chromosome 1 open reading frame 52),-1.58,migration z between -2 and 2; enough cells,0.48,5984
GLT6D1 (glycosyltransferase 6 domain containing 1),-0.68,migration z between -2 and 2; enough cells,0.71,6042
KIAA0825,1.59,migration z between -2 and 2; enough cells,1.3,5498
CFP (complement factor properdin),0.11,migration z between -2 and 2; enough cells,0.92,6269
"ALG2 (ALG2 alpha-1,3/1,6-mannosyltransferase)",0.36,migration z between -2 and 2; enough cells,0.88,3712
"SPTBN5 (spectrin beta, non-erythrocytic 5)",0.74,migration z between -2 and 2; enough cells,1.08,7106
RB1CC1 (RB1 inducible coiled-coil 1),-2.34 (active),migration z below -2; enough cells,0.28,3744
APLN (apelin),-1.33,migration z between -2 and 2; enough cells,0.54,5743
CASP1 (caspase 1),0.13,migration z between -2 and 2; enough cells,0.83,4482
